Measurements reported in ChEMBL document CHEMBL4411315, “Discovery of Novel Dual Histone Deacetylase and Mammalian Target of Rapamycin Target Inhibitors as a Promising Strategy for Cancer Therapy” (J Med Chem, 2019).
pIC50: −log10 of the molar value.

System: Raji
Experiment: Antiproliferative activity against human Raji cells after 72 hrs by MTT assay
Type: functional, cell-based
In short: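 Raji cells were kept in RPMI 1640 with 10% FBS and penicillin/streptomycin at 37 °C and 5% CO2. Log-phase cells were plated at 10000-15000 per well and exposed to serial concentrations after 24 h for 72 h. Read-out was MTT for 1-3 h, then 20% SDS overnight and absorbance at 570 nm. IC50 was calculated from growth versus untreated control, as mean ± SEM of at least three independent experiments.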

Question: How did the pIC50 turn out when `O=C(CCCCCCC(=O)Nc1ccccc1)NO` [VORINOSTAT] was run?
Answer: 6.71
